Results: patent EP4817631A2 (AbbVie Deutschland GmbH & Co. KG, dated 2026)
Residue numbers refer to the chain shown, from its start. Results are given in words; binding and its absence hold for the method and conditions named. Some entries that bind do so weakly or less than the wild type. For part of these data: Tags and fused reporters may be left off the sequences shown.

Assays:
R &D hRGMc-His [1] = molecular target: T1, R &D hRGMc-His (human, UniProt Q6ZVN8 36-400); experiment: human RGMc direct ELISA
T1 construct: Bought (R&D) His-tagged human RGMc; also called human RGMc; not shown: His tag
T1 sequence: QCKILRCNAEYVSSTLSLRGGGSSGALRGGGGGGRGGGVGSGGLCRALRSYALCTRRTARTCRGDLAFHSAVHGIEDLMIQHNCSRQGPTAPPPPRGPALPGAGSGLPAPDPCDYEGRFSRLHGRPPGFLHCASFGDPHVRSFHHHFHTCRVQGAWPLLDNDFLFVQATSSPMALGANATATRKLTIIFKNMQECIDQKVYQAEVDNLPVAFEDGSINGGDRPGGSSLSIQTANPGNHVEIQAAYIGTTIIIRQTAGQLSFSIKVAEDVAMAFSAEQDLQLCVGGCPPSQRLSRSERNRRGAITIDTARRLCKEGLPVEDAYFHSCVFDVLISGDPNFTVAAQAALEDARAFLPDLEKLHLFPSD

R &D hRGMc-His [2] = molecular target: T1, R &D hRGMc-His; experiment: R&D hRGMc-His ELISA
biotin hRGMa (human) [3] = molecular target: T2, biotin hRGMa (human) (UniProt Q96B86); experiment: indirect ELISA: antibody captured by anti-human Fc, biotin hRGMa titrated
T2 sequence (chain, biotinylated): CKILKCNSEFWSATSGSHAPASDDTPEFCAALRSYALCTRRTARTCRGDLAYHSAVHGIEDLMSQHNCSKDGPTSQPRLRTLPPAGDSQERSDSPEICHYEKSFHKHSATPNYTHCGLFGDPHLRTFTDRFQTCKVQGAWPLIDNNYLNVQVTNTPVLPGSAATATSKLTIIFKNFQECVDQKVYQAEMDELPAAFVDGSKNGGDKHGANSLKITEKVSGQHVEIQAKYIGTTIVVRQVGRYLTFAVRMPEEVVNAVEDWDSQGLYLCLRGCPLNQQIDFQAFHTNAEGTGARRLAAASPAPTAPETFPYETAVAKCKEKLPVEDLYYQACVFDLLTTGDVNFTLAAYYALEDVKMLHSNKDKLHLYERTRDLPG

biotin hRGMa (human) [4] = molecular target: T2, biotin hRGMa (human); experiment: hRGMa binding ELISA

Measured: binding

B1: h5F9.AM8 (antibody, V domains shown)
VH: EVQLVESGGGLVQPGGSLRLSCAASGFTFSNYGMNWIRQAPGKGLEWIGMIYYDSSEKHYADSVKGRFTISRDNSKNTLYLQMNSLRAEDTAVYYCAKGTTPDYWGQGTMVTVSS
VL: DVVLTQSPLSLPVTLGQPASISCRSSQSLEESDGYTFLHWFQQRPGQSPRLLIYEVSTRFSGVPDRFSGSGSGTDFTLKISRVEAEDVGVYYCFQATHDPLTFGQGTKLEIK
notes: also called RGMA-h5F9AM.8; RGMA-h5F9pJP297/pJP 298 hIgG1/K mut
binds: R &D hRGMc-His [1] | R &D hRGMc-His [2]

B2: h5F9.AM9 (antibody, V domains shown)
VH: B1 VH with L11V, G16R, I37V, I48V, G49A, K98R
VL: B1 VL with E30A, E31D, Y35D, E55A, T58H, L101V
notes: also called RGMA-h5F9AM.9; RGMA-h5F9pJP297/pJP 299 hIgG1/K mut
binds: all assays above
